Where two headings read alike, the source gives them in different places. Results are given in words; binding and its absence hold for the method and conditions named. Binding seen in cells or lysates may run through a third protein. These calls come from enrichment with a bait or labelling near it, and not all partners need be listed. Sequences can lack the tags named with a protein.

For test [1], the target named is T1, SWI3C-GFP (Arabidopsis thaliana) (UniProt Q9XI07).
T1 sequence: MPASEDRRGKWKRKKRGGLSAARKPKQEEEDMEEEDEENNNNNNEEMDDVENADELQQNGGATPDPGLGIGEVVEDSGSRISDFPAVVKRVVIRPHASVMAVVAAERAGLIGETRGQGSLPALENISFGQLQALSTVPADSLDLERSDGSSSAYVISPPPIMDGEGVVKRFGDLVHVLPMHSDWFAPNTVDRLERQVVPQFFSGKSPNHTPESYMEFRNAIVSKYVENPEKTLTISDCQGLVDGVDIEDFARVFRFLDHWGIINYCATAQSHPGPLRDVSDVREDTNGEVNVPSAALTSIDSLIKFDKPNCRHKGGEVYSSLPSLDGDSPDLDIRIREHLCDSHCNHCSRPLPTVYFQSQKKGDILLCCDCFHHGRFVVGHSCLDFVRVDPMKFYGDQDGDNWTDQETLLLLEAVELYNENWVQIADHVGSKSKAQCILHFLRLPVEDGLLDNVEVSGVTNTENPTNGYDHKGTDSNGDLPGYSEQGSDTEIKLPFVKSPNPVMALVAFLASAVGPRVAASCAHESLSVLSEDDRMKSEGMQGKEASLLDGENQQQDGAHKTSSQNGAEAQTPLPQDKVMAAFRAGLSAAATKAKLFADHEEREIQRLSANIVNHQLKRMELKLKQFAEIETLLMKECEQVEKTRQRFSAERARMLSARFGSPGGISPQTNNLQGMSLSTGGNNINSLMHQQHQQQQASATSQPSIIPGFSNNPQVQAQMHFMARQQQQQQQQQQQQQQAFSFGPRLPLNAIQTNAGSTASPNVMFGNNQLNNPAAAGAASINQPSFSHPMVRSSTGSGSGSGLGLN
Description: affinity purification with mass spectrometry.

Test [2] has as its target T1, SWI3C-GFP (Arabidopsis thaliana). Description: affinity purification with mass spectrometry. This is another data set of the same source.

B1: actin-related protein 4 (ARP4) (protein, UniProt Q84M92 1-441)
chain: MYGGDEVSAIVVDLGSHTCKAGYAGEDAPKAVFPSVIGAVDGVEAMDVDVDSTKTNSNSEDSKTESEKEKSKRKLYVGSQAMSYRRDHMEVLSPIKDGIVSDWDLVDNIWEHAFKSCLMIDPTEHPMLLAEPPLNTQQQREKAAELMFEKYKVPALFMAKNPVLTSFATGRATSLVVDCGGGSTTISPVHDGYVLQKAVVSSPLGGEFLTDCLLKSLESKGIKIRPRYSFKRKEVRAGEFQVEDVDIPDTTESYKLFCQRMIVGDIKDSICRVPDTPYDDKSYSNIPTTSYELPDGQTLEIGADRFKVPDVMFNPSIVQTIPGMEKYAEMIPSVRGLPHMVMESINKCDVDIRRELYSSILLAGGTSSMQQLKERLEKDLIEESPHSARVKVLASGNTTERRFSVWIGGSILASLGSFQQMWFSKSEYEEHGASYIQRKCP
Take B1: the binding result is “binds” in test [1] and “binds weakly” in test [2].

B2: actin-related protein 7 (ARP7) (protein, UniProt Q8L4Y5 1-363)
chain: MEALVVDAGSKFLKAGAAIPDQSPAMIIPSQMKRMVDDGSSSADNPTTVFEDVTLDPIERGLIRDWDAMEDLLRYVVYTGLGWEEGNEGNILFTDPLCTPKAIREQLVQLMFETFNVSGFYASEQAVLSLYAVGRISGCTVDIGHGKIDIAPVLEGAVQHIASKRFELGGTELTKLFAQELGKTNPSMNLSMSDVEKLKEQYANCAEDEIAYKKTQNCEIEQHTLPDGQVISIGRERYSVGEALFQPSILGLEEHGIVEQLVRIISTVSSENHRQLLENTVLCGGTTSMTGFESRFQKEANLCSSAIRPTLVKPPEYMPENLGMYSAWVGGAILAKVVFPQNQHVTKADYDETGPSVVHRKCF
In the case of B2, the binding entry is “binds” in test [1] and “binds weakly” in test [2].

Source of the values: article doi:10.1101/2022.11.24.517835.
